Assay results taken from the supplement of paper PMC3334620.
The full ranking holds about 33,000 sequences; the median of “E-score (-0.5 to 0.5)” is about -0.0034, and the highest 2% start at about 0.25. The list shows a part of the results.

biological target: T1, Yap3 (UniProt P38749); assay: PBM E-score (8-mer binding enrichment) (E-score (-0.5 to 0.5)); higher = stronger / more preferred TF binding; details: protein concentration: 100 nM; construct: GST-full length
T1 sequence: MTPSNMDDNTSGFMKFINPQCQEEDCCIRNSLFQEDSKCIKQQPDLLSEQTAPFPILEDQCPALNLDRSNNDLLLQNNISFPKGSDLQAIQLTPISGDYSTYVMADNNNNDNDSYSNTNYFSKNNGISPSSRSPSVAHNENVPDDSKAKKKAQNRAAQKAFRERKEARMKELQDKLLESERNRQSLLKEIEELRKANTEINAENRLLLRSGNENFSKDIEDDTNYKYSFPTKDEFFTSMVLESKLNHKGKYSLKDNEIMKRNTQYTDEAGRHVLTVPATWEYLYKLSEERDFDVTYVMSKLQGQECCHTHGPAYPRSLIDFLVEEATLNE
Method in brief: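 The E-score, a modified Wilcoxon-Mann-Whitney statistic, was computed by the Universal PBM Analysis Suite for every ungapped eight-base word pooled with its reverse complement. Scans behind it were normalised with masliner after bound GST-tagged yeast transcription factors were detected with fluorescent anti-GST. The proteins, at about 100-200 nM, had been applied to universal all-10-mer Agilent arrays made double-stranded by primer extension.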

In order of rising “PBM E-score” value:
1. GGGTCAGA  -0.342
2. CAGTGAGG  -0.287
3. GAGGGTCA  -0.287
4. GCCCGCCA  -0.26
5. AGAGTTTC  -0.256
6. GACTGAGC  -0.255
7. CCCTTCCA  -0.251
8. CACCACGC  -0.249
9. GGGGTCGA  -0.24
10. GAGCCTCC  -0.234
11. CCACCTTC  -0.232
12. AGTCCCAT  -0.224
13. CCAGCCTA  -0.221
14. CGCCCCAG  -0.219
15. AGTCGCGG  -0.217
16. AGGCGTAG  -0.203
17. GAAAGCTC  -0.2
18. CCCTCCTA  -0.196
19. ACTGTTCC  -0.167
20. CCTTGATC  -0.161
21. AGAGTTAC  -0.156
22. CAGCCAGA  -0.155
23. CAGCGGGG  -0.154
24. CATCCTCC  -0.153
25. AGGATCAG  -0.151
26. CATGGTAG  -0.151
27. AGAACGCT  -0.139
28. AGCGGACC  -0.135
29. GGTGGAAC  -0.133
30. TAGATGCA  -0.129
31. CGGGGCCC  -0.128
32. AACCCCGC  -0.119
33. GAGCATGC  -0.115
34. CGGGCTAG  -0.115
35. AGCTTTGC  -0.109
36. CGCTCGGC  -0.104
37. CCAACTGC  -0.103
38. AAGTCCCG  -0.1
39. ACTTCAGC  -0.0927
40. AGAGAGGC  -0.0925
41. CGCGGCCA  -0.088
42. AATGCTCT  -0.0877
43. ACGGACGT  -0.0852
44. AGCGGCGG  -0.0834
45. CCAATACG  -0.0785
46. GGTGCTAC  -0.074
47. ACAAGCAG  -0.068
48. AATGTTTG  -0.0638
49. TCAGGGGA  -0.0601
50. ACACATCG  -0.0593
51. AACATGCT  -0.056
52. CCCATACG  -0.055
53. GAACCCTA  -0.054
54. CATTGTAC  -0.0434
55. CACTAGAG  -0.0399
56. GAGTAAGC  -0.0395
57. AAGCATAG  -0.0363
58. AACCGCAC  -0.0316
59. CCCCGCAA  -0.0264
60. CACTTGCG  -0.0261
61. GCCTAGTA  -0.0192
62. ACCCAACT  -0.0173
63. CCACAGCG  -0.016
64. CCCGACCA  -0.0156
65. AAGCGGGA  -0.0138
66. TCTGTCCA  -0.0138
67. CAGGAGTA  -0.0122
68. CACCGAGA  -0.00758
69. GTCCGCAC  -0.00347
70. CAACGAGG  -0.00301
71. CAGCTTAG  -0.00249
72. GACACGGA  -0.00232
73. TGCTCAAA  -0.00215
74. CTGGCATA  -0.00058
75. AATGGCTG  2e-05
76. ACAGTTGG  0.00482
77. ACGAAGCA  0.00791
78. CTGTCGCA  0.0096
79. ATGAGGGG  0.0122
80. GATGGAAC  0.0141
81. ACCGATCA  0.0144
82. ACATGAAG  0.0149
83. AAGCGTGG  0.0152
84. GATTAGAC  0.0157
85. ATACTCAC  0.0225
86. GCACATGC  0.0239
87. CAATTGCA  0.0256
88. CGTACATC  0.0265
89. TGTGACAA  0.0303
90. AAATCTCG  0.0309
91. GCAAATAC  0.0311
92. GATAGGAA  0.0325
93. CATTATAA  0.0345
94. ACAGCGGA  0.0373
95. AAAATGCC  0.0391
96. GACCTACA  0.0406
97. TACTCAAA  0.041
98. ATATCGAG  0.0413
99. ACCAGAAT  0.0458
100. TCTCGAAA  0.0459
101. CGGCTTCA  0.0496
102. CGTATGCA  0.0502
103. GCTCTTAC  0.0508
104. CTCTACAA  0.0523
105. AGCATATA  0.0558
106. CAAAAACA  0.0595
107. CAGTGGAG  0.0624
108. ACCGATTG  0.0631
109. AAAAGAGT  0.0632
110. ACGTTACA  0.064
111. AACAGCGG  0.0681
112. ACCCGCAT  0.0749
113. CGTATCAC  0.0764
114. TCTAGTCA  0.0771
115. ATCCTAAG  0.0776
116. ACGAGAAA  0.0781
117. GGCGTCAA  0.0807
118. AAGTTAAT  0.0825
119. CCTCTCAA  0.0828
120. CAACGAGA  0.0884
121. TAGACAGA  0.0906
122. GTACATGA  0.0913
123. GTAACGAA  0.0928
124. CACAAAGC  0.1
125. ATTGCTTA  0.102
126. ATAACGGC  0.107
127. TGCGGAAA  0.108
128. CGGATTTC  0.109
129. ACAGCAAC  0.114
130. AAAACGGA  0.116
131. AGATTCAA  0.116
132. ACATATCC  0.119
133. CCGCGGTA  0.123
134. GATGAGCA  0.127
135. ATTATCGA  0.132
136. AGAACTTG  0.134
137. AAAGACGT  0.135
138. ATGTGCGC  0.136
139. GATTGAAC  0.137
140. AATAGAAA  0.138
141. GGATTACC  0.14
142. TACATGCA  0.141
143. CTGCAATA  0.143
144. GTTTCCTA  0.144
145. CATCATAC  0.147
146. ACTTTGCA  0.153
147. GGTTCGAA  0.153
148. TTCCAGAA  0.153
149. AAATTGTC  0.154
150. ATTTTGTG  0.157
151. AGATACAA  0.157
152. CTTACCCA  0.159
153. CACAATGG  0.162
154. GATACAAA  0.162
155. ATTTGCAC  0.167
156. GAGATACA  0.167
157. CCGGATTA  0.168
158. CCGTGTTC  0.168
159. ACGATATC  0.168
160. AATTGTCA  0.168
161. ATTGGTAC  0.169
162. CAATAAAC  0.169
163. CATAAGCC  0.17
164. CATAAACG  0.176
165. AATGCTCG  0.19
166. AAGAAATT  0.199
167. AACGAATC  0.208
168. CAATATTG  0.213
169. GTAGCTTA  0.214
170. AATTGTTA  0.231
171. CATCATTA  0.232
172. TTATATAA  0.418
